Assay results taken from US11590110B2, “Compositions and methods for reactivating latent immunodeficiency virus using a GSK-3 inhibitor” (priority 2017, dated 2023).
At least one compound was matched to its structure with a doubt left.

Tested on: CD4+ T cells
Assay: Example 5: cytokines release assay (V-PLEX pro-inflammatory panel)
Format: cell-based, human
Conditions: 48 hours; culture supernatant of CD4+ T cells
Procedure: Supernatant was collected from the treated cell cultures described above and stored at −80° C. for later analysis. Supernatant cytokine levels were determined using a V-PLEX Proinflammatory Panel 1 (human) Kit (#K15049D-1) and a V-PLEX IL-17A Gen. B (human) (#K151WMD) from Meso Scale Discovery, following the manufacturer's protocol. The assay was done on undiluted supernatant samples in order to increase the sensitivity of the assay.

Cc1[nH]c2ccccc2c1CCNCc1ccc(/C=C/C(=O)NO)cc1 [panobinostat]
production and release of pro-inflammatory cytokines: little or no cytokine production
